According to patent US20260116925A1:
Results are given in words; binding and its absence hold for the method and conditions named. Some entries that bind do so weakly or less than the wild type. Tags and fused reporters may be left off the sequences shown.

Assays:
[1] = target: recombinant Serpinb3a (mouse-derived), 6×His-tagged, produced in E. coli (mouse); test: Western blot (self-association, dimer)
[2] = target: recombinant Serpinb3a (mouse-derived), 6×His-tagged, produced in E. coli (mouse); test: anti-6×His western blot of recombinant protein (self-association, dimer)

binding [1]: binds | binding [2]: binds
B1: recombinant Serpinb3a (mouse-derived), 6×His-tagged, produced in E. coli (protein)
chain: HHHHHHMHLFAEATTKFTLELYRQLRESDNNIFYSPISMMTALAMLQLGAKGNTEKQIEKVLQFNETTKKTTEKSAHCHDEENVHEQFQKLMTQLNKSNDAYDLKAANSIYGAKGFPFVQTFLEDIKEYYQANVESLDFEHAAEESEKKINSWVESQTNGKIKDLFPNGSLNRSTIMVLVNAVYFKGQWNHKFDEKHTTEEKFWLNKNTSKPVQMMKQNIEFNFMFLEDVQAKIVEIPYKGKELSMIVLLPVEINGLKQLEEQLTADKLLEWTRAENMHMTELYLSLPRFKVDEKYDLPIPLEHMGMVDAFDPQKADFSGMSSTQGLVVSKVLHKSFVEVNEEGTEAAAATGVEVSLTSAQIAEDFCCDHPFLFFIIHRKTNSILFFGRISSP
